Experimental data as given in article PMC7026633.

Chains of the proteins cited; added tags and fusions are not shown. Lines headed by an entry give the natural chain unless they say otherwise; changes in a name come on top.
UniProt O43151: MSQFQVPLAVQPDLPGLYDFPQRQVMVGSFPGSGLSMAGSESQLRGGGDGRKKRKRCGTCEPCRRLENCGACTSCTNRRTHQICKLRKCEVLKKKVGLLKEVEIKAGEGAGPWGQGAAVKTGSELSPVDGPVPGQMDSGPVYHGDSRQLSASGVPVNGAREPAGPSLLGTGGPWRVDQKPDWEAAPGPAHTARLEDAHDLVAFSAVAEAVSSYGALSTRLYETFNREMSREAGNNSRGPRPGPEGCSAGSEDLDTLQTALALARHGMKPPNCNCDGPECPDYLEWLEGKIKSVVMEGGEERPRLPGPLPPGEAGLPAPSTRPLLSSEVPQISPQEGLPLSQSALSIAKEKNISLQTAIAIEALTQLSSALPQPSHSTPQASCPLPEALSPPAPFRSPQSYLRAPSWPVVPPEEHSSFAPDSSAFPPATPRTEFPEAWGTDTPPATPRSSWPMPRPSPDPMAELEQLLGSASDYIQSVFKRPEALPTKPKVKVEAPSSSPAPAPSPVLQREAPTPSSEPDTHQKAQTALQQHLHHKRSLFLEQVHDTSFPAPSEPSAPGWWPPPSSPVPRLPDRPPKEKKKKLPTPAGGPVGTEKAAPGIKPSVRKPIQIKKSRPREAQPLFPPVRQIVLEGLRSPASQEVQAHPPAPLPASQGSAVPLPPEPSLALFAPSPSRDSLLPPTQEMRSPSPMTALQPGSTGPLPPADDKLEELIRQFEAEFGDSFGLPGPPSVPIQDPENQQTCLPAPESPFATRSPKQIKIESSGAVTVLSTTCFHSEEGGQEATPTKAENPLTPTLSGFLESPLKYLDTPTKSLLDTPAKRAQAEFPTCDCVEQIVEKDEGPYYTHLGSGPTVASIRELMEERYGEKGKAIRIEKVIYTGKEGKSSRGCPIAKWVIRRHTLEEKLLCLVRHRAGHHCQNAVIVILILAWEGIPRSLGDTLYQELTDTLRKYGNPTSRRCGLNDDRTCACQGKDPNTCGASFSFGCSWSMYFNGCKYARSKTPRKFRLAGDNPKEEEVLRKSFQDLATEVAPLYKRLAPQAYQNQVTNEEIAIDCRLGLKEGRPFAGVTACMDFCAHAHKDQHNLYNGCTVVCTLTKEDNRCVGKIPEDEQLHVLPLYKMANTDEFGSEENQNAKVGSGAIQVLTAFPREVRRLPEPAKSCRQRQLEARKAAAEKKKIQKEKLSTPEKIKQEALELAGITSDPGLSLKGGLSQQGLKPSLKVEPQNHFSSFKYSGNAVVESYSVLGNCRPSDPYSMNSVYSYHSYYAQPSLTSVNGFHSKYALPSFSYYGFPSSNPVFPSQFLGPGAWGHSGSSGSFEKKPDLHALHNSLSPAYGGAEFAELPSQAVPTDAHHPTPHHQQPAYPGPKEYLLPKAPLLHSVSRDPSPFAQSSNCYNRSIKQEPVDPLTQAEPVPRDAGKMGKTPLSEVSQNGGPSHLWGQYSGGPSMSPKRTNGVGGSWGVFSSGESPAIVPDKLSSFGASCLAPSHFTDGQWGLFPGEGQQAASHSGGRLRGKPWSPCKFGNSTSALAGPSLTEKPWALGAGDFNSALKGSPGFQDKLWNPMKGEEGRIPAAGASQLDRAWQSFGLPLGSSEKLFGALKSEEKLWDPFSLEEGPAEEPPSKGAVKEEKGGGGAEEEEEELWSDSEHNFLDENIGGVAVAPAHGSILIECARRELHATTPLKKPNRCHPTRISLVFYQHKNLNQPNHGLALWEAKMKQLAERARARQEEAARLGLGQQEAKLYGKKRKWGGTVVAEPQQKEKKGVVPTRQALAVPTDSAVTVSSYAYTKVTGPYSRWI

Biological target: Flag-tagged full length human Tet3 (SBP-N-terminal-Flag-hTet3-IRES-GFP) (human) (UniProt O43151)
Experiment: affinity purification with mass spectrometry; Flag-tagged full-length human Tet3 transiently expressed in HEK293; lysate in RIPA buffer incubated 2 h at 4°C with anti-Flag M2 affinity gel, washed three times with RIPA; co-precipitated proteins found by mass spectrometry

B1: O-GlcNAc transferase (enzyme, UniProt O15294 1-1046)
chain: MASSVGNVADSTEPTKRMLSFQGLAELAHREYQAGDFEAAERHCMQLWRQEPDNTGVLLLLSSIHFQCRRLDRSAHFSTLAIKQNPLLAEAYSNLGNVYKERGQLQEAIEHYRHALRLKPDFIDGYINLAAALVAAGDMEGAVQAYVSALQYNPDLYCVRSDLGNLLKALGRLEEAKACYLKAIETQPNFAVAWSNLGCVFNAQGEIWLAIHHFEKAVTLDPNFLDAYINLGNVLKEARIFDRAVAAYLRALSLSPNHAVVHGNLACVYYEQGLIDLAIDTYRRAIELQPHFPDAYCNLANALKEKGSVAEAEDCYNTALRLCPTHADSLNNLANIKREQGNIEEAVRLYRKALEVFPEFAAAHSNLASVLQQQGKLQEALMHYKEAIRISPTFADAYSNMGNTLKEMQDVQGALQCYTRAIQINPAFADAHSNLASIHKDSGNIPEAIASYRTALKLKPDFPDAYCNLAHCLQIVCDWTDYDERMKKLVSIVADQLEKNRLPSVHPHHSMLYPLSHGFRKAIAERHGNLCLDKINVLHKPPYEHPKDLKLSDGRLRVGYVSSDFGNHPTSHLMQSIPGMHNPDKFEVFCYALSPDDGTNFRVKVMAEANHFIDLSQIPCNGKAADRIHQDGIHILVNMNGYTKGARNELFALRPAPIQAMWLGYPGTSGALFMDYIITDQETSPAEVAEQYSEKLAYMPHTFFIGDHANMFPHLKKKAVIDFKSNGHIYDNRIVLNGIDLKAFLDSLPDVKIVKMKCPDGGDNADSSNTALNMPVIPMNTIAEAVIEMINRGQIQITINGFSISNGLATTQINNKAATGEEVPRTIIVTTRSQYGLPEDAIVYCNFNQLYKIDPSTLQMWANILKRVPNSVLWLLRFPAVGEPNIQQYAQNMGLPQNRIIFSPVAPKEEHVRRGQLADVCLDTPLCNGHTTGMDVLWAGTPMVTMPGETLASRVAASQLTCLGCLELIAKNRQEYEDIAVKLGTDLEYLKKVRGKVWKQRISSPLFNTKQYTMELERLYLQMWEHYAAGNKPDHMIKPVEVTESA
binding: binds

Results are given in words; binding and its absence hold for the method and conditions named. In cells and extracts the contact can be indirect. A yes stands for co-enrichment or nearness to the bait. Other partners may have been found.
